The test has as its target Foxo1 (human (endogenous in Tregs)) (UniProt Q12778). The test is described as follows: proximity ligation.

Amino acid sequences for entries named in this document (tags omitted).
UniProt Q12778: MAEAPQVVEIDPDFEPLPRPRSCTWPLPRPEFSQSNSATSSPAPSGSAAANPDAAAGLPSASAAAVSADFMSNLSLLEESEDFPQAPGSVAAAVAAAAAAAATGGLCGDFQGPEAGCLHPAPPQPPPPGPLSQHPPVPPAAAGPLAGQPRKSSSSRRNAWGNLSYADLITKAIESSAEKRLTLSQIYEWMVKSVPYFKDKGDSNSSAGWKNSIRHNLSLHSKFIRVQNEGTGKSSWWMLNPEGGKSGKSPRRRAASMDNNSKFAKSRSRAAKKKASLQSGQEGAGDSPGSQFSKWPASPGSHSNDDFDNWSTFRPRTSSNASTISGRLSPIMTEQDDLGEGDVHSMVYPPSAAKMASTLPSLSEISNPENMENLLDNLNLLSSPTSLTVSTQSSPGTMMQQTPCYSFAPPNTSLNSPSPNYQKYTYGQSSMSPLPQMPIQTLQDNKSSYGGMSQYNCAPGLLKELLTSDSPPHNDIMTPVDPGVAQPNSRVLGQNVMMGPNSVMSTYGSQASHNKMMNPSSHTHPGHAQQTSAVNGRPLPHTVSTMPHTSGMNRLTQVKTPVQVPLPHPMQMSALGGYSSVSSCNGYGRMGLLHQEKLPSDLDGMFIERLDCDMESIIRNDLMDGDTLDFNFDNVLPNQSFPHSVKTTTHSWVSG
UniProt P35222: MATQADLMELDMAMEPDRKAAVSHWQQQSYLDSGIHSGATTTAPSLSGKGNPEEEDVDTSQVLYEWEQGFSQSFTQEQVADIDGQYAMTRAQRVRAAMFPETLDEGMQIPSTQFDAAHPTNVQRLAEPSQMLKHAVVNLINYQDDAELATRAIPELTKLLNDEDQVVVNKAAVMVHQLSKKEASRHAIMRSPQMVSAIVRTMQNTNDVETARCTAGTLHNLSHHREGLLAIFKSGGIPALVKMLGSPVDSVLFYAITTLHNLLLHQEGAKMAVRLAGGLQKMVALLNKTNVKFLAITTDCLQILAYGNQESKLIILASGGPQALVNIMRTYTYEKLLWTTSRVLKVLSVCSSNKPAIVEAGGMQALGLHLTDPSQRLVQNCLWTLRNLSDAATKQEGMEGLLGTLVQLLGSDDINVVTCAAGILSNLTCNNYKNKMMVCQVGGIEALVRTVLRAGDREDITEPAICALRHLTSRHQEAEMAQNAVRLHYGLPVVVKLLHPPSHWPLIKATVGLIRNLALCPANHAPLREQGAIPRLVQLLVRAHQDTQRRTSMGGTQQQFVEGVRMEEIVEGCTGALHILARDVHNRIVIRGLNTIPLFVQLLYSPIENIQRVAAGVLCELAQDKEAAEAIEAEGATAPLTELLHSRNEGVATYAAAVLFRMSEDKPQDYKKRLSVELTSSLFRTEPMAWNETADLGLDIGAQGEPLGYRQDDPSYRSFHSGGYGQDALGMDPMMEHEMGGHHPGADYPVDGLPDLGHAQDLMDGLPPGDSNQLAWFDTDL

No constants are given. Whether binding was seen depends on the method and setting. Binding seen in cells or lysates may run through a third protein. Some results given as binding are weak or reduced against the parent protein; the word gives no strength.

Consider β-catenin (from UniProt P35222 1-781), for which the binding result is “binds”.
